Assay results as given in patent US9816075B2, “Compounds with modifying activity enhanced under hypoxic conditions” (Board of Regents, The University of Texas System, priority 2005, dated 2017).

tested on: calf-thymus DNA; assay: Intercalator displacement titration for DNA binding constants; details: 10 mM Tris, 10 mM NaCl, pH 7.5; fit to McGhee-von Hippel equation

| Substance | binding site size (s) |
| --- | --- |
| [Ru2(bpy)2(tpphz)(CH3CN)4]^4+ | 2.5 |
| [Ru2(phen)4tatpq]^4+ [[Ru2(phen)4(tatpq)]^4+] | 1.7 |
| [Ru2(bpy)2(tpphz)(CO)4]^4+ | 1.3 |
| [Ru2(phen)4tatpp]^4+ [[Ru2(phen)4(tatpp)]^4+] | 2.2 |
